These results are taken from article PMC10199020 (Nature Communications, 2023).

Sequences of proteins named here, by UniProt entry; tags and fusion partners are left off. Residues count along the entry.
UniProt Q5VWK5, 24-629: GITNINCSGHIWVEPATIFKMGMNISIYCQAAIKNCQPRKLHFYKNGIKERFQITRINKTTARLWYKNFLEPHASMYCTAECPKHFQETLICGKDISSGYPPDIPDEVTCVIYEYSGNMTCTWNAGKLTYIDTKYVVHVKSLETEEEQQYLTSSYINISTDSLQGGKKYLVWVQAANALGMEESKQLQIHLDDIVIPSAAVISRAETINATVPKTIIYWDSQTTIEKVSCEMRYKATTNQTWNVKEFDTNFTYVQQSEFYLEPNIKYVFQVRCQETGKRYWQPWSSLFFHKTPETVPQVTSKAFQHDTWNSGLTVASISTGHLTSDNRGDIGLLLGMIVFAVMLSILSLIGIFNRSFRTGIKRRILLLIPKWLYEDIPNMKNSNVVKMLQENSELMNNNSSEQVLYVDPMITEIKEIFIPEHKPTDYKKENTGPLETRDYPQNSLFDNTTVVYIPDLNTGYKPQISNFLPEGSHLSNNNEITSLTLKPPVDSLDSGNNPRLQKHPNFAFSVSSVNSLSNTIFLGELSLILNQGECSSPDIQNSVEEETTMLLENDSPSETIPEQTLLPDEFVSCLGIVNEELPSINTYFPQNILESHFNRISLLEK

In experiment [1] the target is T1, NL-IL23R and IL12Rβ1 (IL-23 receptor) on HEK293T cells (Homo sapiens, UniProt P42701+Q5VWK5).
T1 construct: expressed in transfected cells; host or cells: HEK293T (ATCC CRL-3216), transient transfection
Description: IL23-TMR NanoBRET competition assay. Type of experiment: binding. The settings on record: for BRET ratio (Mean): Fig. 4b; for IC50: P630 IC50 (Mean), Fig. 4d. The method, then:
Schematic created with Biorender.com. IL23R is shown in orange, IL12Rβ1 in purple, IL23p19 in blue, IL12p40 in green and the presence of a TAMRA fluorophore by a pink star. […] In b and c, data are mean ± SEM from 5 independent experiments conducted in either duplicate or triplicate. Details on absolute number of data points included for each concentration are provided in the associated Source Data file.
(§1) Transient transfections for experiments outlined in Fig. 6 were conducted by seeding 100 μL of 2 × 10^5 cells/ml concentrated HEK293T cells into poly-D-lysine (PDL) coated white 96 well clear bottom assay microplates (Greiner) and incubating overnight. The following day transfection mixes were made up that contained a 4:1 ratio of IL23R to IL12Rβ1 constructs to a total concentration of 100 ng per well with a 0.3 μL per well of FuGENE HD transfection reagent (Promega) in OptiMEM (Gibco). These mixtures were incubated for 10 min before being added to the plate at 5 μL per well. The cells were then incubated overnight to allow expression. For all other experiments 2 mL containing 4 × 10^5 cells were seeded into 6 well plates and incubated 5 h before being transiently transfected with 100 μL per well of a transfection mix containing 2 μg of DNA and 6 μL of FuGENE HD. These cells were then incubated overnight before being re-suspended the following day and seeded into PDL coated white assay microplates at 100 μL containing 3 × 10^4 transfected cells. Cells were then incubated overnight before the experiment. Estimates of total expression levels for the different NL-constructs were made by comparing the luminescence levels achieved to that of a NanoLuciferase standard curve measured under the same conditions (Supplementary Fig. 1).
Media was removed from white 96-well microplates containing transfected cells and replaced with fluoroprobe in the presence or absence of antagonist in 50 μL Hanks Balanced Salt Solution (HBSS) with 1 mg/mL BSA (Merck).
Antagonist competition data were fit with the equation:4 Y=Bmin+Bmax−Bmin/1+10^(LogXC50−[A])C Where ‘Bmax’ is the maximum BRET signal, ‘Bmin’ is the minimum BRET signal, ‘LogXC50’ is the log of the 50% inhibiting concentration of antagonist, ‘[A]’ is the concentration of antagonist and ‘C’ is the Hill slope.
(In general: BRET reads energy transfer from a luciferase to a nearby fluorophore.)

Experiment [2] deals with T1, NL-IL23R and IL12Rβ1 (IL-23 receptor) on HEK293T cells. Description: P630-TMR NanoBRET competition assay. Type of experiment: binding. As to the method:
as §1, with “1). […]” for “1).”

For experiment [3], the target named is HiBit-IL23R and LgBit-IL12Rβ1 (Homo sapiens, UniProt Q5VWK5). The conditions noted are these: Fig. 3c; 10 μM Peptide 630; Exp 1-5. From the text: Finally, we utilised a NanoBiT BRET system in which a complemented luciferase with fragments bound to both receptor subunits (Fig. 3) can be used as a BRET donor to measure interactions with binary receptor complexes.
Data in b are mean ± SEM from three independent experiments. In each individual experiment, triplicate determinations were made for total binding and duplicate or triplicate determinations made for non-specific binding. Data in c are the mean values obtained in five independent experiments, each conducted with six replicates. […] Data in d are the mean ± SEM from five (NL-IL23R and NL-23R + IL12Rβ1) or three (HiBit-IL23R + LgBit-IL12Rβ1) independent experiments. Source data are provided as a Source Data file.

The term Ki denotes the equilibrium dissociation constant of an inhibitor or competing ligand from its target. High values mean a looser hold on the target, low ones a stronger hold on the target. Broadly, the IC50 is the concentration that gives 50% inhibition. A high value points to weaker potency in that assay. On to `COc1ccc(C[C@H](NC(=O)[C@H]2NC(=O)[C@H](CCC(N)=O)NC(=O)[C@H](Cc3c[nH]c4ccccc34)NC(=O)[C@H]([C@@H](C)O)NC(=O)[C@H](CC(N)=O)NC(=O)[C@@H](NC(C)=O)C(C)(C)SSC2(C)C)C(=O)N[C@@H](Cc2ccc3ccccc3c2)C(=O)NC(C)(C)C(=O)N[C@@H](CCC(=O)O)C(=O)N[C@@H](CC(N)=O)C(=O)N[C@@H](CC(N)=O)C(N)=O)cc1` [P630], for which, in experiment [1] (300 pM IL23-TMR, [P630] -8.43136 logM), the “Inhibition of IL23-TMR binding (Mean)” value is listed as -2.658. In addition, the “BRET ratio (Mean)” value in experiment [1] (600 pM IL23-TMR, [P630] -8.699 logM) came to 0.2942; in experiment [1] (600 pM IL23-TMR, [P630] -10.699 logM), 0.2935; in experiment [1] (2000 pM IL23-TMR, [P630] -11.699 logM), 0.2936. For the same compound, the Ki in experiment [1] (Ki, IL23-TMR competition, NL-IL23R and IL12Rβ1, mean ± SEM) came to 21.8 ± 3.4 nM; in experiment [1] (Mean P630 Ki, multiple concentrations of IL23-TMR, ± SEM, n = 25) it was 38 ± 9 nM; in experiment [2], 6.32 ± 1.06 nM. Also, the IC50 in experiment [1] ([IL23-TMR] 0.1 nM) worked out at 294 nM; in experiment [1] ([IL23-TMR] 0.6 nM) it was 738 nM; in experiment [1] ([IL23-TMR] 1 nM), 843 nM; in experiment [1] ([IL23-TMR] 2 nM), 2540 nM. Besides, in experiment [3], the “Luminescence counts (Mean per experiment)” value worked out at 21827.
